Measured values taken from PMC11809919, “Quinoxaline-based anti-schistosomal compounds have potent anti-plasmodial activity” (PLOS Pathogens, 2025).
Some ranges recur; such a range may be that of the whole group of compounds.

How the values were obtained:
Type in all cases: cell-based, Plasmodium falciparum
[1] = tested on: Dd2-Polδ mutator line; assay: In vitro drug resistance selections using Dd2-Polδ; conditions: for Ramping selections: initially 1×IC50, increasing concentrations; for Flasks with recovered parasites: triplicate flasks, 1×10^8 parasites, 5×IC50
[2] = tested on: Dd2 parental parasites; assay: Minimum inoculum for resistance (MIR), Dd2 parental; conditions: for Recrudescent day: Dd2 wildtype, day parasitemia crossed 1%
[3] = tested on: Dd2-Polδ mutator line; assay: Minimum inoculum for resistance (MIR), Dd2-Polδ
[4] = 5×IC50, inoculum 10^8 parasites
[5] = 5×IC50, inoculum 10^8 parasites, after drug removal
[6] = 5×IC50, inoculum 10^9 parasites

`O=[N+]([O-])c1ccc2nc(Nc3cc(C(F)(F)F)ccc3F)c(Nc3cc(C(F)(F)F)ccc3F)nc2c1` [Compound 33] was tested, and the “Parasite below detection limit” value [1, 4] was 8 to 10 days, the Recrudescence [1, 5] was “did not recover even after 60 days” and the Recrudescence ([1]; 5×IC50, inoculum 10^8 parasites, after drug removal, listed as C33) was “no recrudescence”. For the same compound, the “Parasite below detection limit” value [1, 6] was 8 to 10 days, the Recrudescence [1, 6] was “no recrudescent parasites were recovered” and the Recrudescence ([1]; 5×IC50, inoculum 10^9 parasites, listed as C33) was “no recrudescence”. The Ramping selections [1] was “no resistance”.
For `O=[N+]([O-])c1ccc2nc(Nc3ccc(Cl)c(Cl)c3)c(Nc3ccc(Cl)c(Cl)c3)nc2c1` [Compound 22], the “Parasite below detection limit” value [1, 4] was 8 to 10 days, the Recrudescence [1, 5] was “approximately 3 weeks” and the Recrudescence ([1]; 5×IC50, inoculum 10^8 parasites, after drug removal, listed as C22) was 3 weeks. The “Flasks with recovered parasites” value [1] was “two of the triplicate flasks”, the Recrudescence ([2]; Dd2, inoculum 10^4 – 10^8) was “no recrudescence” and the “Minimum inoculum for resistance (MIR)” value ([2]; Dd2 and Dd2-Polδ, triplicate cultures, 10^4 – 10^8 per culture) was > 3×10^8 parasites. For the same compound, the Recrudescence ([3]; inoculum 10^4 – 10^8) was “no recrudescence”.
For `O=[N+]([O-])c1ccc2nc(Nc3ccc(C(F)(F)F)cc3)c(Nc3ccc(C(F)(F)F)cc3)nc2c1` [Compound 31], the “Parasite below detection limit” value [1, 4] was 8 to 10 days, the Recrudescence [1, 5] was “approximately 3 weeks” and the Recrudescence ([1]; 5×IC50, inoculum 10^8 parasites, after drug removal, listed as C31) was 3 weeks. For the same compound, the “Parasite below detection limit” value [1, 6] was 8 to 10 days, the Recrudescence [1, 6] was “no recrudescent parasites were recovered” and the Recrudescence ([1]; 5×IC50, inoculum 10^9 parasites, listed as C31) was “no recrudescence”. The Ramping selections [1] was “no resistance” and the “Flasks with recovered parasites” value [1] was “two of the triplicate flasks”.
With `CC1(C)c2nc(-c3ccc(F)cc3)c(Nc3ccc(Cl)cc3)n2CCN1C(=O)CN` [GNF179] the Recrudescent cultures ([2]; Dd2, inoculum 10^7 and 10^8, 3×IC50) was 3/3, the Recrudescent day ([2]; inoculum 10^7) was 26-42 and the Recrudescent day ([2]; inoculum 10^8) was 26-32. For the same compound, the Recrudescent cultures ([3]; inoculum 10^6, 3×IC50) was 2 of 3, the Recrudescent day ([3]; inoculum 10^6, day parasitemia crossed 1%) was 35 and the Recrudescent day ([3]; inoculum 10^7, day parasitemia crossed 1%) was 16. The Recrudescent day ([3]; inoculum 10^8, day parasitemia crossed 1%) was 26.
